Results are given in words; binding and its absence hold for the method and conditions named. Binding seen in cells or lysates may run through a third protein. Binding can be weak; no strength is given.

Sequences of proteins named here, by UniProt entry; tags and fusion partners are left off. Residues count along the entry.
UniProt P10809, residues 27-573: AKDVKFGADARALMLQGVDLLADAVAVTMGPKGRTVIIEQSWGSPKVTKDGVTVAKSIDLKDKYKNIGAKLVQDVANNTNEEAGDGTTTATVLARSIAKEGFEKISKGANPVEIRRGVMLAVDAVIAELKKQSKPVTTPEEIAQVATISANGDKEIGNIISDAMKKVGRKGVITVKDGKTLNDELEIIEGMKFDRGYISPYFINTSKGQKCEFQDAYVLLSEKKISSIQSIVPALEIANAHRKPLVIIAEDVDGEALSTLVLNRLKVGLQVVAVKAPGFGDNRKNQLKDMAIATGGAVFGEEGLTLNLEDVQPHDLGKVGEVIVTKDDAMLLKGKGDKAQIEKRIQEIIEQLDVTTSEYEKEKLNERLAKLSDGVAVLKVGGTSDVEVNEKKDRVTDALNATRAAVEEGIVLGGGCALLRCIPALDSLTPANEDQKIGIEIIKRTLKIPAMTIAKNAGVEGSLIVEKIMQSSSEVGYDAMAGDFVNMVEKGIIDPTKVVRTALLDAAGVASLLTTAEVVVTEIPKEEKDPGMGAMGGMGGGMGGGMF

Experimental findings from publication PMC12239982 are described below.

Test [1] addresses HSP60 (heat shock protein family 60), endogenous (human (endogenous in RKO, CX-1 or HCT116)) (UniProt P10809). Description: co-IP; cell lysate (1 mg) on Protein A/G beads with anti-HSP60 (2 ug) or control IgG, 4 C overnight; blot with anti-HSP60 and anti-VEGFA; both proteins endogenous.
For test [2], the target named is HSP60-Flag (from pcDNA-HSP60-Flag) (UniProt P10809). Description: co-IP; HCT116 transfected with pcDNA-HSP60-Flag (pcDNA3.1 as negative control), 48 h; lysate (1 mg) on anti-Flag magnetic beads, 4 C overnight; blot with anti-Flag, anti-HSP60 and anti-VEGFA.

With “vascular endothelial growth factor A (VEGFA), endogenous (from UniProt P15692-4)”, the binding entry in test [1] and in test [2] was “binds” in each case.
